Measured data: PubChem BioAssay AID652243 (Drosophila RNAi Screening Center, 2013)
Purpose: 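Knock-downs that decrease or increase androgen receptor reporter signal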 (primary screen). System: Drosophila S2R+ cells. Reagents: long dsRNA against Drosophila genes. Duration: 72 h (48 h, then 24 h hormone). Conditions: synthetic androgen R1881 at 10 nM for 24 h. Detection: 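Firefly light from an androgen-responsive reporter and Renilla control light per well, raw and unnormalised, for each of two replicates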. Scale: firefly reporter light: higher = more light from androgen-responsive reporter; Renilla control light: higher = more constitutive control signal (cell number, transfection). Rule for the call: 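Hit when the log firefly-to-Renilla ratio dropped or increased by a fixed fold versus the mean of GFP or LacZ controls across duplicate plates; lowering cut given as 1.5 and as 3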. Calls: active = hit: reporter lowered or raised; inactive = no hit.
The deposit covers about 24,000 reagents; below is a random part of those with a known target gene and a result. Of all reagents, 246 (1%) are marked active. 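Plates not normalised; calls are printed but the firefly/Renilla ratio behind them is not deposited; fold cut for lowering reported inconsistently.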 Raw values are not corrected between plates. A number with no mark means an inactive call. No sequences are given here. Not given: the amount of reagent.

CG2712 [DRSC18589] → firefly reporter light, replicate 1 = 1.41e5; firefly reporter light, replicate 2 = 69747; Renilla control light, replicate 1 = 9.64e5; Renilla control light, replicate 2 = 6.33e5
ssp6 [DRSC08791] → firefly reporter light, replicate 1 = 98040; firefly reporter light, replicate 2 = 78284; Renilla control light, replicate 1 = 2.01e5; Renilla control light, replicate 2 = 1.38e5
ssp6 [DRSC10677] → firefly reporter light, replicate 1 = 2.05e5; firefly reporter light, replicate 2 = 1.66e5; Renilla control light, replicate 1 = 9.49e5; Renilla control light, replicate 2 = 1.06e6
ssp6 [DRSC27709] → firefly reporter light, replicate 1 = 2.13e5; firefly reporter light, replicate 2 = 3.08e5; Renilla control light, replicate 1 = 3.48e5; Renilla control light, replicate 2 = 6.17e5
Tsp42El [DRSC06186] → firefly reporter light, replicate 1 = 1.04e6; firefly reporter light, replicate 2 = 7.96e5; Renilla control light, replicate 1 = 2.17e6; Renilla control light, replicate 2 = 2.83e6
Myt1 [DRSC11228] → firefly reporter light, replicate 1 = 1.97e5; firefly reporter light, replicate 2 = 1.59e5; Renilla control light, replicate 1 = 1.73e6; Renilla control light, replicate 2 = 1.68e6
Myt1 [DRSC30071] → firefly reporter light, replicate 1 = 8.71e5; firefly reporter light, replicate 2 = 8.28e5; Renilla control light, replicate 1 = 1.20e6; Renilla control light, replicate 2 = 1.16e6
pan [DRSC17176] → firefly reporter light, replicate 1 = 51597; firefly reporter light, replicate 2 = 47759; Renilla control light, replicate 1 = 4.89e5; Renilla control light, replicate 2 = 4.18e5
pan [DRSC22582] → firefly reporter light, replicate 1 = 1.13e6; firefly reporter light, replicate 2 = 8.29e5; Renilla control light, replicate 1 = 1.99e6; Renilla control light, replicate 2 = 1.60e6
pan [DRSC29251] → firefly reporter light, replicate 1 = 7.85e5; firefly reporter light, replicate 2 = 7.59e5; Renilla control light, replicate 1 = 1.44e6; Renilla control light, replicate 2 = 1.38e6
CG30015 [DRSC05241] → firefly reporter light, replicate 1 = 1.91e5; firefly reporter light, replicate 2 = 1.87e5; Renilla control light, replicate 1 = 6.67e5; Renilla control light, replicate 2 = 3.11e5
CG30015 [DRSC07027] → firefly reporter light, replicate 1 = 8.88e5; firefly reporter light, replicate 2 = 7.06e5; Renilla control light, replicate 1 = 2.21e6; Renilla control light, replicate 2 = 2.39e6
CG30015 [DRSC07028] → firefly reporter light, replicate 1 = 1.26e5; firefly reporter light, replicate 2 = 1.54e5; Renilla control light, replicate 1 = 1.15e6; Renilla control light, replicate 2 = 9.49e5
CG15473 [DRSC18056] → firefly reporter light, replicate 1 = 4.73e5; firefly reporter light, replicate 2 = 3.74e5; Renilla control light, replicate 1 = 2.42e6; Renilla control light, replicate 2 = 2.49e6

Part of the list above, reformatted.
gene knocked down | dsRNA | firefly reporter light, replicate 1 | firefly reporter light, replicate 2 | Renilla control light, replicate 1 | Renilla control light, replicate 2
CG30015 | DRSC07028 | 1.26e5 | 1.54e5 | 1.15e6 | 9.49e5
CG15473 | DRSC18056 | 4.73e5 | 3.74e5 | 2.42e6 | 2.49e6
